Record: PubChem BioAssay AID1259425 (University of Nebraska Medical Center, 2018)
Screen: 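Seek colon cancer weak points whose silencing resembles KSR1 loss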 (primary screen). System: HCT116 human colon cancer cells. Reagents: siRNA pool against human genes, 50 nM siRNA. Detection: 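After 50 nM siRNA pool, branched-DNA assay measures six marker transcripts per well, minus blank, normalised to the geometric mean of two housekeeping transcripts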. Direction: BNIP3L mRNA: higher = more BNIP3L transcript after knockdown; NDRG1 mRNA: higher = more NDRG1 transcript after knockdown; BNIP3 mRNA: higher = more BNIP3 transcript after knockdown; ALDOC mRNA: higher = more ALDOC transcript after knockdown; ACSL5 mRNA: higher = more ACSL5 transcript after knockdown.
This is a random part of about 14,000 reagents tested. Not given: the time to read-out.

| target | BNIP3L mRNA, set 1 | NDRG1 mRNA, set 1 | BNIP3 mRNA, set 1 | ALDOC mRNA, set 1 | ACSL5 mRNA, set 1 |
| --- | --- | --- | --- | --- | --- |
| PTGER2 | 0.173 | 0.456 | 0.459 | 0.0933 | 0.283 |
| ESYT1 | 0.158 | 0.8 | 0.311 | 0.041 | 0.179 |
| PROKR2 | 0.403 | 0.383 | 0.698 | 0.112 | 0.368 |
| ERBB2 | 0.106 | 0.187 | 0.246 | 0.0187 | 0.258 |
| CPSF6 | 0.0754 | 1.03 | 0.426 | 0.029 | 0.233 |
| THOC1 | 0.0633 | 0.429 | 0.27 | 0.00865 | 0.0918 |

No new results follow: an excerpt of the list.
| target | BNIP3L mRNA, set 1 | NDRG1 mRNA, set 1 | BNIP3 mRNA, set 1 | ALDOC mRNA, set 1 | ACSL5 mRNA, set 1 |
| --- | --- | --- | --- | --- | --- |
| PTGER2 | 0.173 | 0.456 | 0.459 | 0.0933 | 0.283 |
| ESYT1 | 0.158 | 0.8 | 0.311 | 0.041 | 0.179 |

The list goes on:
| target | BNIP3L mRNA, set 1 | NDRG1 mRNA, set 1 | BNIP3 mRNA, set 1 | ALDOC mRNA, set 1 | ACSL5 mRNA, set 1 |
| --- | --- | --- | --- | --- | --- |
| CEACAM7 | 0.0911 | 0.104 | 0.294 | 0.0241 | 0.165 |
| PPP2R1B | 0.0569 | 0.122 | 0.236 | 0.0145 | 0.0889 |
| IL2 | 0.12 | 0.117 | 0.431 | 0.0176 | 0.12 |
| MED8 | 0.143 | 1.04 | 0.413 | 0.0784 | 0.263 |
| CHD1L | 0.103 | 0.169 | 0.267 | 0.0155 | 0.221 |
| OR3A2 | 0.194 | 0.321 | 0.3 | 0.0508 | 0.218 |
| ENO1 | 0.0704 | 0.0595 | 0.214 | 0.0183 | 0.102 |
| GRIK3 | 0.0472 | 0.0838 | 0.219 | 0.0102 | 0.0565 |
| TRHR | 0.0542 | 0.262 | 0.248 | 0.0492 | 0.209 |
| MPZ | 0.11 | 0.0473 | 0.214 | 0.0243 | 0.0648 |
| NCF4 | 0.248 | 0.146 | 0.453 | 0.111 | 0.154 |
| TCTN2 | 0.114 | 0.158 | 0.294 | 0.0334 | 0.16 |
| POU6F2 | 0.0798 | 0.402 | 0.37 | 0.00855 | 0.234 |
| PILRA | 0.09 | 0.0717 | 0.305 | 0.0255 | 0.148 |
